Binding data for one substance are collected here from publication PMC3519819.

Sequences of proteins named here, by UniProt entry; tags and fusion partners are left off.
UniProt P0A6B7: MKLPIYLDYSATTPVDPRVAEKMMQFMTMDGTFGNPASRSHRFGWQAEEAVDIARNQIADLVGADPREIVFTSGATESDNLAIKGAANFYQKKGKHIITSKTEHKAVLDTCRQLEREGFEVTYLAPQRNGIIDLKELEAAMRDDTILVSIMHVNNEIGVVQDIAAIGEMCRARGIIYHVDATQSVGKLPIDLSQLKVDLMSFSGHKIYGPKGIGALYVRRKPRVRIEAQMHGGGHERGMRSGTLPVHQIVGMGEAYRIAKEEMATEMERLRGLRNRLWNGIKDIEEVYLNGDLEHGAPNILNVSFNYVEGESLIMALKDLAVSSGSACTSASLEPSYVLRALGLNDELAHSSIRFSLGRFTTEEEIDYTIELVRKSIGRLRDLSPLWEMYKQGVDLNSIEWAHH

The experiment deals with T1, GST tagged DptE (Salmonella enterica serovar Cerro 87) (UniProt E2D679).
T1 sequence: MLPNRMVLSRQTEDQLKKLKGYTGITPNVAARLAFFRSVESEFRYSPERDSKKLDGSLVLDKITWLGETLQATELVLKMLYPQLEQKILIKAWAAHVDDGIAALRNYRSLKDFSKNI
Briefly: pull-down; Cell extracts of Strep-IscS and GST-DptC or GST-DptE mixed in equal volume, GST resin, Buffer S (25 mM Hepes pH7.6, 100 mM KCl, 10% glycerol), 1 hour, eluted with 20 mM glutathione; Western blot against StreptagII. Background: A western blot detects proteins with antibodies after separation by electrophoresis.

These are yes or no findings as the source states them, for the method shown. Binding seen in cells or lysates may run through a third protein. Some entries that bind do so weakly or less than the wild type. Where a sequence is shown, tags or fusion partners need not be part of it.

Regarding “Strep tagged IscS (from UniProt P0A6B7 1-404) (enzyme)”, the binding result is reported as “binds”.
